Measurements as given in paper PMC10984984, “Loss-of-function mutation in PRMT9 causes abnormal synapse development by dysregulation of RNA alternative splicing”.

Sequences of proteins named here, by UniProt entry; tags and fusion partners are left off. A change or cut given only in a name is not applied to a line headed by its entry.
UniProt Q6P2P2: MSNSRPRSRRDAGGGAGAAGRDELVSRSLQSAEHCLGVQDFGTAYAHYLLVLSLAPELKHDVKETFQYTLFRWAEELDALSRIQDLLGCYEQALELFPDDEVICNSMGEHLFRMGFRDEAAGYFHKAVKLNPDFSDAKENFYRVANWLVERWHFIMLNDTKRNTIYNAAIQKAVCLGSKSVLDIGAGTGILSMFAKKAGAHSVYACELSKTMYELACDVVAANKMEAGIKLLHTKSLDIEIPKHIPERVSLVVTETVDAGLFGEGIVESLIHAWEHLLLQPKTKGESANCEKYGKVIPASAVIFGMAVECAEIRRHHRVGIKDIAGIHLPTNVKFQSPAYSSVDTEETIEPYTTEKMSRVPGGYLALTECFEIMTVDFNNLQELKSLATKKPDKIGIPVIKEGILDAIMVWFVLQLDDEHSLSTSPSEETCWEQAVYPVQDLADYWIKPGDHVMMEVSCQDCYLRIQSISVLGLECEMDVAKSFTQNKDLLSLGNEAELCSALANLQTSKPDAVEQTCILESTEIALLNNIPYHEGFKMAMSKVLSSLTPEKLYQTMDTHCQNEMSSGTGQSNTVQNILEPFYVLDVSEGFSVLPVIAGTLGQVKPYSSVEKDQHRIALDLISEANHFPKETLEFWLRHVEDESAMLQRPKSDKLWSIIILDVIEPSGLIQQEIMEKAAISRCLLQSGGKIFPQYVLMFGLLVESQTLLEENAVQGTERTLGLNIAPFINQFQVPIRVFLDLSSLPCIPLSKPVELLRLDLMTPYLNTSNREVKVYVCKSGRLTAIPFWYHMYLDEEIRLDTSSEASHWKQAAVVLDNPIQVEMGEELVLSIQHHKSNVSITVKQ
UniProt Q13435: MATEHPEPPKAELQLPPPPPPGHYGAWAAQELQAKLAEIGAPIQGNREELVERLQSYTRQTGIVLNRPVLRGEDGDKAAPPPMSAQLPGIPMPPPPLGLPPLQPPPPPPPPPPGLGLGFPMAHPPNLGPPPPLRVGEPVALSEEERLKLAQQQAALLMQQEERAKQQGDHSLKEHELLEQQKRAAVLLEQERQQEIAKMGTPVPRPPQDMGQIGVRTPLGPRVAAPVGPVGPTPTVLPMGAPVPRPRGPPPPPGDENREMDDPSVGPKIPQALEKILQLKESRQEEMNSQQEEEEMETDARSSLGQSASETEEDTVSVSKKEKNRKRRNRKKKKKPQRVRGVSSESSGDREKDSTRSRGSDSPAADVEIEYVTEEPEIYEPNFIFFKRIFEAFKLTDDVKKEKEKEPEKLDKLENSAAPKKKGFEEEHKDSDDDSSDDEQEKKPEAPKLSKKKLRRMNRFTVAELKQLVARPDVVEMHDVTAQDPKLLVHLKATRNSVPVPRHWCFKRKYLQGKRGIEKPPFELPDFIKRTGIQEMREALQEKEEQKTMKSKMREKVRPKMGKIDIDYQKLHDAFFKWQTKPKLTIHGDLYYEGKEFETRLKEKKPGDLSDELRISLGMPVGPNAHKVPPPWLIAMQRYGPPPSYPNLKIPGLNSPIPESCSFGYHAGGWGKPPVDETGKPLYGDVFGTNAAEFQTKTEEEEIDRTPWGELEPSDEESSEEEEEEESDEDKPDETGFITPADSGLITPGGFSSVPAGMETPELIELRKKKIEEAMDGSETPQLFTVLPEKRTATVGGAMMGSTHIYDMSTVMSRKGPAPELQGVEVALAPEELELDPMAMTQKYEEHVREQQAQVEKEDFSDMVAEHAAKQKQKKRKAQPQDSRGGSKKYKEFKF
UniProt Q15386: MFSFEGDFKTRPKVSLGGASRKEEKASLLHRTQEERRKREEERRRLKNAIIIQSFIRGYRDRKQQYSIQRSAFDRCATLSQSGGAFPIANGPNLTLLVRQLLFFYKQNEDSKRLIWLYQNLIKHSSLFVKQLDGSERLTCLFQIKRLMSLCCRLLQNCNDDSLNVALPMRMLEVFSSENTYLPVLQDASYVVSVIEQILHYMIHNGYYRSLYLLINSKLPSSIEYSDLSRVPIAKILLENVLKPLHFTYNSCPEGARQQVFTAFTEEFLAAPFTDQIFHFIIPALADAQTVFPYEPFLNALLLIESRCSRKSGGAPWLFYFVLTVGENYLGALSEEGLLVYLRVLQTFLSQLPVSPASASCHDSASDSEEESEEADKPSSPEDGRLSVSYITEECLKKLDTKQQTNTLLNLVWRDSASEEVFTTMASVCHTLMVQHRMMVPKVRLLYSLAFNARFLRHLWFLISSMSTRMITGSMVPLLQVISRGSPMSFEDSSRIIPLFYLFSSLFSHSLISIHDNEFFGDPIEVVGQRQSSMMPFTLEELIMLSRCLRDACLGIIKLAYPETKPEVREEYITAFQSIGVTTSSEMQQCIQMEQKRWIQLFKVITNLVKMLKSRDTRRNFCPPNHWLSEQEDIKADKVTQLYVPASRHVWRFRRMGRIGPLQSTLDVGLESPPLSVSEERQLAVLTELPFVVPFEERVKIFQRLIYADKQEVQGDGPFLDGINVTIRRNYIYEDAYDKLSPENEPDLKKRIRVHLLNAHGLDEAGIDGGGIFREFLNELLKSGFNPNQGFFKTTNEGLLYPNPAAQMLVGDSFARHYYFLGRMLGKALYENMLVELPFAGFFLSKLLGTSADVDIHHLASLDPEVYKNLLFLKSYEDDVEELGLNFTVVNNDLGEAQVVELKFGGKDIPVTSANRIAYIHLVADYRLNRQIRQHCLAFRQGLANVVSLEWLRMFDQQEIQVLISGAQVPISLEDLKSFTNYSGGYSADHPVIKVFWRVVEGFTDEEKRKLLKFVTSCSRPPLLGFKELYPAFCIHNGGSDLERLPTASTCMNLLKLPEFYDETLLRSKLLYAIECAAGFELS

Columns and labels:
Experiment in all cases: affinity purification with mass spectrometry; protein complexes purified by Flag-tagged WT and G189R-mutant PRMT9 from HEK293 cells, resolved on a gel, in-gel digestion, LC/MS; two biological repeats
[1] = biological target: Flag-tagged G189R-mutant PRMT9 (human) (UniProt Q6P2P2)
[2] = biological target: Flag-tagged wild type PRMT9 (protein arginine methyltransferase 9) (human) (UniProt Q6P2P2)
[3] = biological target: Flag-tagged wild type PRMT9 (protein arginine methyltransferase 9) (human), Q6P2P2; details: remark: other sources report otherwise

Molecule	binding [1]	binding [2]	binding [3]
splicing factor 3B subunit 2 (SF3B2), endogenous (from UniProt Q13435 1-895)	no binding	binds	
SF3B4, Q15427 1-424 (protein) MAAGPISERNQDATVYVGGLDEKVSEPLLWELFLQAGPVVNTHMPKDRVTGQHQGYGFVEFLSEEDADYAIKIMNMIKLYGKPIRVNKASAHNKNLDVGANIFIGNLDPEIDEKLLYDTFSAFGVILQTPKIMRDPDTGNSKGYAFINFASFDASDAAIEAMNGQYLCNRPITVSYAFKKDSKGERHGSAAERLLAAQNPLSQADRPHQLFADAPPPPSAPNPVVSSLGSGLPPPGMPPPGSFPPPVPPPGALPPGIPPAMPPPPMPPGAAGHGPPSAGTPGAGHPGHGHSHPHPFPPGGMPHPGMSQMQLAHHGPHGLGHPHAGPPGSGGQPPPRPPPGMPHPGPPPMGMPPRGPPFGSPMGHPGPMPPHGMRGPPPLMPPHGYTGPPRPPPYGYQRGPLPPPRPTPRPPVPPRGPLRGPLPQ			binds

The remaining lines, values ahead:

binding [1]	binding [2]	binding [3]	Molecule
binds	binds		valosin-containing protein (VCP)/p97 (from UniProt P55072 1-806)
binds	binds		ubiquitin-protein ligase E3C (UBE3C) (from UniProt Q15386 1-1083) (enzyme)

Results are given in words; binding and its absence hold for the method and conditions named. In cells and extracts the contact can be indirect. A yes stands for co-enrichment or nearness to the bait. Other partners may have been found. For some of these results: No binding means not detected with the bait.
